Data reported in article PMC7326067, “The Critical Role of Tryptophan in the Antimicrobial Activity and Cell Toxicity of the Duck Antimicrobial Peptide DCATH” (Frontiers in Microbiology, 2020).
Where no end group is shown, it is not given here.

Tested on: bacterial cells over hRBCs
Settings: TI = HC10/GM (ratio of MHC to GM)

Substance	TI (therapeutic index)
KRFWQLVPLAIKIYRA-NH2 [dCATH(1–16)]	52.46
QLVPLAIKIYRAWKRR-NH2 [dCATH(5–20)]	39.02
